Reference: article doi:10.1101/2024.09.13.612963 (bioRxiv, 2024)
Positions count from the first letter of the chain named. No constants are given. Whether binding was seen depends on the method and setting. In cells and extracts the contact can be indirect. Some binding calls cover weakened binding; strength is not graded here. For some of these results: Sequences can lack the tags named with a protein. Each block holds one molecule with its values, some of them ahead of it.

By UniProt entry, the sequences of proteins in these tests, tags left out.
UniProt Q14204: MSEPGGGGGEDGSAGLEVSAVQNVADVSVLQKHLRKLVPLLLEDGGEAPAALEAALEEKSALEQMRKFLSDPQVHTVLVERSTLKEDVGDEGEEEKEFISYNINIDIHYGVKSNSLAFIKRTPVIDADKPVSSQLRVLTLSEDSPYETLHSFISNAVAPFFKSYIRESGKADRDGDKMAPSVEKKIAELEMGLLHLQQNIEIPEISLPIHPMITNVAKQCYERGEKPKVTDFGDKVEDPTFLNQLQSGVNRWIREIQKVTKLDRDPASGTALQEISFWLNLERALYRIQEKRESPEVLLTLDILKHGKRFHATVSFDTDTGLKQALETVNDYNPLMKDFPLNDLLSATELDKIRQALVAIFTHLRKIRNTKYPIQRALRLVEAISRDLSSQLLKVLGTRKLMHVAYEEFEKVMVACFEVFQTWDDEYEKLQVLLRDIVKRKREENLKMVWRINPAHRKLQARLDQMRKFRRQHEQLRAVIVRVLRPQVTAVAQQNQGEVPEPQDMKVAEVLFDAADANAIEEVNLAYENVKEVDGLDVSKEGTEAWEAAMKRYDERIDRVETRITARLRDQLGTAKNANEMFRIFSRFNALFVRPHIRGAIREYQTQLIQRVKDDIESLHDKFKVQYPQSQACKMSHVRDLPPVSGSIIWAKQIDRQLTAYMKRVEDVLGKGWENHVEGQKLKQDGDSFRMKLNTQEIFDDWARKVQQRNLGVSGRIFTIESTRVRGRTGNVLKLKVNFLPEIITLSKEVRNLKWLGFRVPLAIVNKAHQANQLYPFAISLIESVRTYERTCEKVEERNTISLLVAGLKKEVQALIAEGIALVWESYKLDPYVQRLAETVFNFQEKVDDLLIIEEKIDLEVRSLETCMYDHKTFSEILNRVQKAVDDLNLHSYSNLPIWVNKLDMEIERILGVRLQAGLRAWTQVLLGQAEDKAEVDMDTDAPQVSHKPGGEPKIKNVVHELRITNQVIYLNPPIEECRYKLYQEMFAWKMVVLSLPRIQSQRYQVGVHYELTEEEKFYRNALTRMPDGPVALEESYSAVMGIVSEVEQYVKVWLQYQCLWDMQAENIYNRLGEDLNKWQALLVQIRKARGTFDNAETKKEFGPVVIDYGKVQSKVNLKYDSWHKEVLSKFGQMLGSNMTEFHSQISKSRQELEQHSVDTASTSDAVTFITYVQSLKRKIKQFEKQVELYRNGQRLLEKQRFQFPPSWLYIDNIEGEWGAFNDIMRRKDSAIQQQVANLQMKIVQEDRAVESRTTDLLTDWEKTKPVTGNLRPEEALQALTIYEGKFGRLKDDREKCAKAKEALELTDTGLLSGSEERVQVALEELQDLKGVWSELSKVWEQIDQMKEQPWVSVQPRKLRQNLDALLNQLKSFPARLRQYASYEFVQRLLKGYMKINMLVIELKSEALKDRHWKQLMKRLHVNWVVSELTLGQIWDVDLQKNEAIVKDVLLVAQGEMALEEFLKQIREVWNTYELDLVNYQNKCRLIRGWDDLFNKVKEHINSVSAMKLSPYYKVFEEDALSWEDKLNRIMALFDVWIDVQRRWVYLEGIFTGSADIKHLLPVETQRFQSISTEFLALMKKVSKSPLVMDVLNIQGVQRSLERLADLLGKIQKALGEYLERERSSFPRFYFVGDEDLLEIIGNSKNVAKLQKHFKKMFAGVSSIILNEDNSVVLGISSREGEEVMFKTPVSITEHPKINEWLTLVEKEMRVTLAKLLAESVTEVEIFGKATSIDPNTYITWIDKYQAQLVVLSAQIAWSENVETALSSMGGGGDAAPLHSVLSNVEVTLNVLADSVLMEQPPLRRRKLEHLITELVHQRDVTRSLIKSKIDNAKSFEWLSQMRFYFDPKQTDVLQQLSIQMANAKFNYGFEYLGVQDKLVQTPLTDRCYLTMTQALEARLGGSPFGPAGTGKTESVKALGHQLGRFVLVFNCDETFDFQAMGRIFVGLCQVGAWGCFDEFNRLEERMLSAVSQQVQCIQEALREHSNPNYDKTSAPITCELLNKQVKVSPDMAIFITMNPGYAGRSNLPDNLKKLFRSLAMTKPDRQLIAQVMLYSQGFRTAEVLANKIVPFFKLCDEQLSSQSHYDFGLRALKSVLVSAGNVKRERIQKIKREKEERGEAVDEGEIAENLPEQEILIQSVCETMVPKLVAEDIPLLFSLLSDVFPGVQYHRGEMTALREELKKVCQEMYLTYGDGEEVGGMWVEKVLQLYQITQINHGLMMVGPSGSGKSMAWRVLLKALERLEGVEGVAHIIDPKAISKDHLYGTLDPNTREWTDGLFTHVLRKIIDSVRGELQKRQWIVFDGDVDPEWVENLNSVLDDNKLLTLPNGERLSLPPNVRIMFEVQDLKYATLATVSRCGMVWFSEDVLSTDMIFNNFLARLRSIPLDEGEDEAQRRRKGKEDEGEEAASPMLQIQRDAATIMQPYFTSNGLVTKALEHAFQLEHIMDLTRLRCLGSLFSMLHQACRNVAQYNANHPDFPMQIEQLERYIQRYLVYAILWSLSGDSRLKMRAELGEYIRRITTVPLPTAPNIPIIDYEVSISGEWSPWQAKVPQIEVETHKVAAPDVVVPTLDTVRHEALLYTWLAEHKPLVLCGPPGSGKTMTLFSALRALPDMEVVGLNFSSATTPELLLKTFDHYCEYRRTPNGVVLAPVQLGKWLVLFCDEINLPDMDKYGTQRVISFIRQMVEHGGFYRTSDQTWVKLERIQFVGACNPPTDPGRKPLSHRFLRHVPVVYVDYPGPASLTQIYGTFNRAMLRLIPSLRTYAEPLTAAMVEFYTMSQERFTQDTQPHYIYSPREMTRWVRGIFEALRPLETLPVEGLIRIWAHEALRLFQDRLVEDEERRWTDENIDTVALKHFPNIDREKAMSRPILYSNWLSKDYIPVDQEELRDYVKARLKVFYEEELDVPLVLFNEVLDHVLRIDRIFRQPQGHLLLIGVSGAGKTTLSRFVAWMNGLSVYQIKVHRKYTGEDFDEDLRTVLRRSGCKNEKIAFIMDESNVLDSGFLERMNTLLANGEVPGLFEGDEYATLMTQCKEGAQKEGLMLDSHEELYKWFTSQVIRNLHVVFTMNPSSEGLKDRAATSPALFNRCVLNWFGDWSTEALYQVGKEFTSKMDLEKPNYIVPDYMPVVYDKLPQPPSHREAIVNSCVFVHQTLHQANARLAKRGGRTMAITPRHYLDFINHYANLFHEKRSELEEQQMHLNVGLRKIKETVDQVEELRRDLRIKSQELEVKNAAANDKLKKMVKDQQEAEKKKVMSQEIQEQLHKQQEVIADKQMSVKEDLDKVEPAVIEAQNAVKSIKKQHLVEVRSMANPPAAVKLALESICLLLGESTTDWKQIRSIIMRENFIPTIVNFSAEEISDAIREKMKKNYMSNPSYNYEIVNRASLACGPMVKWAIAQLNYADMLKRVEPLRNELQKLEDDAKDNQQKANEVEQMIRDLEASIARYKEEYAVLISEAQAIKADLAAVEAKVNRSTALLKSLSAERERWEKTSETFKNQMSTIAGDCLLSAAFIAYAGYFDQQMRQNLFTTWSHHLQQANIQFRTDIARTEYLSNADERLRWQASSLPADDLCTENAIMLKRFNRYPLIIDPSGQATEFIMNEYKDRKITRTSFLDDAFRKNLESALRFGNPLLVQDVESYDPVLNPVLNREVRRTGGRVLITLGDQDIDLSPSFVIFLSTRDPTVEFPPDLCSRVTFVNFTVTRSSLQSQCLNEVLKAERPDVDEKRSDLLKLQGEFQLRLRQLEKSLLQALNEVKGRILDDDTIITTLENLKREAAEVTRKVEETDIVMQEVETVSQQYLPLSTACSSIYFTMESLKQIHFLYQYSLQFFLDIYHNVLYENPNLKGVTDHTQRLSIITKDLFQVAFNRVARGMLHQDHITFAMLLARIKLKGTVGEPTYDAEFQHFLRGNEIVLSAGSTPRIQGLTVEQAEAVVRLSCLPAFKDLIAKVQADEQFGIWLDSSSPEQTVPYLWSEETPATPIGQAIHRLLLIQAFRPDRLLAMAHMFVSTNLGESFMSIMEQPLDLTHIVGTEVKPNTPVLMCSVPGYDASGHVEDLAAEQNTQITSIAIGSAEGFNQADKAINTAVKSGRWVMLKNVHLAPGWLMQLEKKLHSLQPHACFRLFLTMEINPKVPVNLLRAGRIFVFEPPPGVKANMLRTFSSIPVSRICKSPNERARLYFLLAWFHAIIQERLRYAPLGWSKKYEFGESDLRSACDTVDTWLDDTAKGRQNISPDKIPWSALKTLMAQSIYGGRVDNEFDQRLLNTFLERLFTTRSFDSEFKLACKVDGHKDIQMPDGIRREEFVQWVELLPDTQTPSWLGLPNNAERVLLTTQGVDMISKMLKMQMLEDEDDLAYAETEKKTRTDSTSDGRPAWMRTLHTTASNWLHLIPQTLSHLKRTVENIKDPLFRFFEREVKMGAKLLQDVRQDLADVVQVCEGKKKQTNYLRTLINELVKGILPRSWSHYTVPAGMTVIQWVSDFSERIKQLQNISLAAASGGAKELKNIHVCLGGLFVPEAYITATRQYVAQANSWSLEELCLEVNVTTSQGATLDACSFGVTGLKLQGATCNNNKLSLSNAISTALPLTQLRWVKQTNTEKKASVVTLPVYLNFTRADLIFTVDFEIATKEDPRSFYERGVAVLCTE
UniProt P33176: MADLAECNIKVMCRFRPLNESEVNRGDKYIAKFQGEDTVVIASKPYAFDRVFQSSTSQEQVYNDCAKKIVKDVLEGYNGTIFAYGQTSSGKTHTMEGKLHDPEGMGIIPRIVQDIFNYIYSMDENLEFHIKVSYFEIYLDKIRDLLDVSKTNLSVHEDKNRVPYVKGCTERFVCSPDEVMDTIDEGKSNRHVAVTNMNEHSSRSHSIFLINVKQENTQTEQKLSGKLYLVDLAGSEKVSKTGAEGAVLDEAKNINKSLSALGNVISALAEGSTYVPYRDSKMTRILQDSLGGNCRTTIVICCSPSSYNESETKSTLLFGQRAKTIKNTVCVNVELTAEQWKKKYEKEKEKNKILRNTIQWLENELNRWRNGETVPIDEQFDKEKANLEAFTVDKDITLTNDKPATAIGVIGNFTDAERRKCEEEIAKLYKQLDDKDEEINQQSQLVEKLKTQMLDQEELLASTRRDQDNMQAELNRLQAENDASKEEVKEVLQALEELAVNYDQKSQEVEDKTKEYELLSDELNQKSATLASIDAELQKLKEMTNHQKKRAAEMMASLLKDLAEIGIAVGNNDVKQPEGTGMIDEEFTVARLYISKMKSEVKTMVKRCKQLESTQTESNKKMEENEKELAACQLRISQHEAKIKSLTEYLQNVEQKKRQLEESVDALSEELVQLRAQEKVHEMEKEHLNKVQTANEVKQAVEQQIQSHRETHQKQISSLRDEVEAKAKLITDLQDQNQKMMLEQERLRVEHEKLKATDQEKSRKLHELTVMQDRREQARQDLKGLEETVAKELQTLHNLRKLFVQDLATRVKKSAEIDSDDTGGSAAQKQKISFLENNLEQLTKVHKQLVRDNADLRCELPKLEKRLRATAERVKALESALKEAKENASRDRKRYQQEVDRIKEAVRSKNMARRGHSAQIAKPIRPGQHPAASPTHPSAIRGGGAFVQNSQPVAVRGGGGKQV

Key:
Assay in all cases: co-IP
[1] = molecular target: T1, TRAK1-mScarlet E242R (human) (UniProt Q9UPV9)
T1 sequence: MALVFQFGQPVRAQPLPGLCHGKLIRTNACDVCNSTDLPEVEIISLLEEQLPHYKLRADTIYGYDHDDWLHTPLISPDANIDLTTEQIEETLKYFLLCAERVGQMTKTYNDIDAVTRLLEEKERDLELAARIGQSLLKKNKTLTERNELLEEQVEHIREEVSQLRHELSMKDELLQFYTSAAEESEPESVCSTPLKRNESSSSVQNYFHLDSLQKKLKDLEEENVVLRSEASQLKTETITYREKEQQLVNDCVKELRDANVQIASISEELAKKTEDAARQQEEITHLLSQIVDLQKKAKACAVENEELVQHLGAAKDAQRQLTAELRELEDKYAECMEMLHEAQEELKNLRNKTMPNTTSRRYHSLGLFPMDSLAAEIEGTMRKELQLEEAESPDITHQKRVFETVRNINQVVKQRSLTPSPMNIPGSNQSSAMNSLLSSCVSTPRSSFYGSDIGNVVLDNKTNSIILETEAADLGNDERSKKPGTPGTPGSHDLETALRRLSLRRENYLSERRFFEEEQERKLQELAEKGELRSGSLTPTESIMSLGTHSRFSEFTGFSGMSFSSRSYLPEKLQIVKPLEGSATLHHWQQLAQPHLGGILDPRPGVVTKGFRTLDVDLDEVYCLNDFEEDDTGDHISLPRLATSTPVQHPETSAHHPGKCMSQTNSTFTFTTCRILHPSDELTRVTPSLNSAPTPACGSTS

[2] = molecular target: T2, TRAK2-mScarlet A129V/A130V (CC1-box mutant) (human) (UniProt O60296)
T2 sequence: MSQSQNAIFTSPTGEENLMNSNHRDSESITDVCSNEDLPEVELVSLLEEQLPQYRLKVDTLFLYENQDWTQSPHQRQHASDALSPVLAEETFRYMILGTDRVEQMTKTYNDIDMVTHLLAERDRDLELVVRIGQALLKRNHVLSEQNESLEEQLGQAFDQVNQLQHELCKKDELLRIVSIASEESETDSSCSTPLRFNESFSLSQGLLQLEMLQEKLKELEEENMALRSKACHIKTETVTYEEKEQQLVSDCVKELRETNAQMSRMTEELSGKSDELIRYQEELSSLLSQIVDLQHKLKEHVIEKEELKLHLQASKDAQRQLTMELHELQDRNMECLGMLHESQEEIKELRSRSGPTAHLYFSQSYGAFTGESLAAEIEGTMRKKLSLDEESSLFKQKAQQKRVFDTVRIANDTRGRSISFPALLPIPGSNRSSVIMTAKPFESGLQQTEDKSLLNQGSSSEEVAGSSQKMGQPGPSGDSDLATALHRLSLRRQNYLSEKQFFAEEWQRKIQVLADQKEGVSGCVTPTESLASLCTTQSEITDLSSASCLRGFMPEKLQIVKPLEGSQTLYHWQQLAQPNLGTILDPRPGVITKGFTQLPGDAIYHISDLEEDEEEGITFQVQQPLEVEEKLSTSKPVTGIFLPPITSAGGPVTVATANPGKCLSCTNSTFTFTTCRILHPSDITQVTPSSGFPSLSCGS

[3] = molecular target: T3, TRAK2-mScarlet (wild type, truncated before the mitochondrial binding domain) (human) (UniProt O60296)
T3 sequence: T2 sequence with V129A, V130A

[4] = molecular target: T4, TRAK1-mScarlet (wild type, truncated before the mitochondrial binding domain) (human) (UniProt Q9UPV9)
T4 sequence: T1 sequence with R242E

[5] = molecular target: T5, Miro1-sfGFP-FLAG-I3-01 synthetic cargo (human) (UniProt Q8IXI2)
T5 sequence: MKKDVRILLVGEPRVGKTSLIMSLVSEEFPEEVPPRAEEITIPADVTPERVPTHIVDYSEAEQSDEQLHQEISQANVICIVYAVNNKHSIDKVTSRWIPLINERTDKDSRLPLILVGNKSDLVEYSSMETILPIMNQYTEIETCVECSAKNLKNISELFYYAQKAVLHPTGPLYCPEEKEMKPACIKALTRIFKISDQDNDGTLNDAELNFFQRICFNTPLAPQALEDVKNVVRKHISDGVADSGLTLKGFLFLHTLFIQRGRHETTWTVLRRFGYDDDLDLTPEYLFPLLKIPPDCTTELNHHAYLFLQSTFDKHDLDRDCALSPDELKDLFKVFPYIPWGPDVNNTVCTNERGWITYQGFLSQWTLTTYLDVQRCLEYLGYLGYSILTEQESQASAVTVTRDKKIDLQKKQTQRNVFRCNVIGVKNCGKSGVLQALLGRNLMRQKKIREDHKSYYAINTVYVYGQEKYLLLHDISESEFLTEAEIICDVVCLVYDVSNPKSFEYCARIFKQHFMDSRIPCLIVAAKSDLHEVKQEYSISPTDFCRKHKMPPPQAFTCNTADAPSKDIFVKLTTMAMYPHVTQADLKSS

Molecule: dynein heavy chain (DHC1) (from UniProt Q14204 1-4646)
binding [2]: binds
binding [3]: binds

B1: TRAK2-mScarlet (wild type, truncated before the mitochondrial binding domain) (domain or fragment, UniProt O60296 1-700)
chain: T2 sequence with V129A, V130A
binding [5]: binds

The next lines start with results.

binding [1]: binds
Molecule: kinesin-1 (KIF5B) (from UniProt P33176 1-963)

binding [3]: binds
binding [4]: binds
Molecule: dynactin subunit p150 (from UniProt Q14203-1 1-1278)
binding [2]: binds
